This assay concerns the target Flag‐E47 (UniProt P15806). Nature of the assay: co-IP; total lysates of transfected HEK293T cells or of transfected P19EC cells treated with 1 µmol/L ATRA for 24 h; anti‐Myc or anti‐FLAG antibody on Dynabeads protein G, 2 h at 4°C; 50 mmol/L Tris‐HCl pH 7.6, 150 mmol/L NaCl, 2 mmol/L EDTA, 0.5% NP‐40, 3% glycerol.

By UniProt entry, the sequences of proteins in these tests, tags left out. Where a name states a change or a piece, a line headed by the entry shows the natural chain unless it says otherwise.
UniProt P15806: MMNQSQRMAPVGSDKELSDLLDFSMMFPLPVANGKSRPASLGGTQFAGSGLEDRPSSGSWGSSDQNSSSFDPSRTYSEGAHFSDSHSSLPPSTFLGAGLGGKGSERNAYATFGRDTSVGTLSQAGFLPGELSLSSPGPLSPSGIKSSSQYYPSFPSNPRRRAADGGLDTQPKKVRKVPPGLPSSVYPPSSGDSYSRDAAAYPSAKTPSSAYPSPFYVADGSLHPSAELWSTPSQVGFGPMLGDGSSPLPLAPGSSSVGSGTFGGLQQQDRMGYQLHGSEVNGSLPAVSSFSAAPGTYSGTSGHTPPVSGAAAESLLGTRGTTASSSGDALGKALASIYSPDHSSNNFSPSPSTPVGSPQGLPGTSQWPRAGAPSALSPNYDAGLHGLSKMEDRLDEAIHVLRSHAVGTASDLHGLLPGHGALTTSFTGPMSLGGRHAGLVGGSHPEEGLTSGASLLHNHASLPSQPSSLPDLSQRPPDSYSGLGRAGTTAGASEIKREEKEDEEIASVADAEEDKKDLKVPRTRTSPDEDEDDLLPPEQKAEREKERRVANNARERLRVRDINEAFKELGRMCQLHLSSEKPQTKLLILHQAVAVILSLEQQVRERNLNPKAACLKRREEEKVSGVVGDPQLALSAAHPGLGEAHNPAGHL

Results are given in words; binding and its absence hold for the method and conditions named. In cells and extracts the contact can be indirect. A result given as binding can be weak or reduced; the word gives no strength. Where a sequence is shown, tags or fusion partners need not be part of it.

B1: Myc‐STRA8 (pcDNA3‐Myc‐STRA8) in HEK293T cells (protein, UniProt P70278 1-393)
chain: MATPGEGNQPSDDGAPQPLAQLQKLEPRVVRRRLSQARHRATLVGLFNNLRKAVYSQSDITASKWQVLNRTKIHIQEQEESLDKLLKLKASFNLQDGNPNSLEEVKEEYARMYSENDSVFLNSFLQDSPPEWFPSEAVGPDAEEEGEEEGEEEGEEGEEEEEGDEEGEEEEENGEEREVEEYQEEEEEEEEEEKKVDLSHSSSTLLPDLMEFERYLNFYKQTMDLLTMNSIISAHEVTLPIVSAAISHLWQTLSEEKKARLLQVWEQQHSAFADLTEACLELAGVEGSMKDSGVDSQGASCSLESTPEEILFEDAFDVASFLDKSEAQHMSNISAMFATCNSENPEEKFQLYIQIIEFFKSLGCVNTPLNQEPEPPDDDDAMLLKCLETFDDL
Regarding B1, the binding entry is “binds”.

The values are drawn from paper PMC7810945.
